PubChem BioAssay AID1259308 | NCATS, 2017

Screen: 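Knock-downs that increase output of a recombinant reporter protein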 (primary screen)
System: human HEK293 embryonic kidney cells stably expressing firefly luciferase (HEK-CMV-Luc2-Hygro)
Reagent: single siRNA against human genes, 0.8 pmol siRNA per well
Time to read-out: 72 h
Measurement: 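Luciferase light (ONE-Glo) measured on one replicate plate set and viability (CellTiter-Glo) on the other, scaled to a negative control siRNA, with robust z-scores and luciferase per cell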
Reading the numbers: total luciferase, z-score: higher = more reporter protein produced
Active means: 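Active when the median/MAD z-score for overall luciferase is greater than 3; a gene was taken forward for validation with new siRNAs if at least two of its three siRNAs passed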
Calls: active = raised luciferase; inactive = no rise
The whole screen tested about 59,000 reagents; shown is a random part of them. About 1,510 of them (2.6%) count as active. 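Calls use total luciferase alone and ignore viability, so some active siRNAs may act by altering cell number.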 Unmarked entries are inactive. The numbers tell different reagents against one gene apart. Further read-outs or replicates are left out here. Reagent sequences are not shown.

Silencing of P2RY12 #1 resulted in: total luciferase, z-score 0.187.
Depletion of P2RY12 #2 gave: total luciferase, z-score -0.318.
Silencing of P2RY12 #3 gave: total luciferase, z-score -0.578.
After knock-down of SPEN #1, the record shows total luciferase, z-score -0.563.
After knock-down of SPEN #2, the record shows total luciferase, z-score -0.884.
Knock-down of SPEN #3 gave: total luciferase, z-score -1.33.
With knock-down of NFU1 #1, the record shows total luciferase, z-score -0.954.
After knock-down of NFU1 #2, the screen gave total luciferase, z-score -0.332.
NFU1 #3 scored total luciferase, z-score -0.472.
For RBM4 #1, the entry reads total luciferase, z-score 2.13.
With knock-down of RBM4 #2, the record shows total luciferase, z-score 4.95 (active).
Knock-down of RBM4 #3 came out at: total luciferase, z-score -0.678.
Knock-down of TTC16 #1 resulted in: total luciferase, z-score -2.83.
Silencing of TTC16 #2 gave: total luciferase, z-score -2.53.
Against TTC16 #3, the entry reads total luciferase, z-score 1.66.
With knock-down of ALG1 #1 the results were total luciferase, z-score 0.972.
After knock-down of ALG1 #2 the results were total luciferase, z-score -0.699.
With knock-down of ALG1 #3 the results were total luciferase, z-score -0.0136.
After knock-down of EMC8 #1, the screen gave total luciferase, z-score -0.441.
Silencing of EMC8 #2 came out at: total luciferase, z-score -0.575.
For EMC8 #3, the values are total luciferase, z-score -1.6.
Silencing of KDM8 #1 came out at: total luciferase, z-score 0.132.
KDM8 #2 scored total luciferase, z-score 1.62.
KDM8 #3 gave total luciferase, z-score 0.137.
Silencing of SART1 #1 resulted in: total luciferase, z-score 2.13.
SART1 #2 scored total luciferase, z-score 3.03 (active).
SART1 #3 scored total luciferase, z-score 5.89 (active).
TULP4 #1 showed total luciferase, z-score -1.39.
For TULP4 #2, the entry reads total luciferase, z-score -0.66.
Against TULP4 #3 the deposit lists total luciferase, z-score 0.617.
CDK13 #1 scored total luciferase, z-score -1.34.
Silencing of CDK13 #2 gave: total luciferase, z-score 1.69.
CDK13 #3 scored total luciferase, z-score 0.916.

Quoted from the listing (5 entries):
SART1 #3: total luciferase, z-score = 5.89 (active)
TULP4 #1: total luciferase, z-score = -1.39
TULP4 #2: total luciferase, z-score = -0.66
TULP4 #3: total luciferase, z-score = 0.617
CDK13 #1: total luciferase, z-score = -1.34
